Source: publication PMC10618106
No constants are given. Whether binding was seen depends on the method and setting. Binding seen in cells or lysates may run through a third protein. Some results given as binding are weak or reduced against the parent protein; the word gives no strength. Tags and fused reporters may be left off the sequences shown.

The chains behind the UniProt entries cited, without tags or fusion partners.
UniProt P68400: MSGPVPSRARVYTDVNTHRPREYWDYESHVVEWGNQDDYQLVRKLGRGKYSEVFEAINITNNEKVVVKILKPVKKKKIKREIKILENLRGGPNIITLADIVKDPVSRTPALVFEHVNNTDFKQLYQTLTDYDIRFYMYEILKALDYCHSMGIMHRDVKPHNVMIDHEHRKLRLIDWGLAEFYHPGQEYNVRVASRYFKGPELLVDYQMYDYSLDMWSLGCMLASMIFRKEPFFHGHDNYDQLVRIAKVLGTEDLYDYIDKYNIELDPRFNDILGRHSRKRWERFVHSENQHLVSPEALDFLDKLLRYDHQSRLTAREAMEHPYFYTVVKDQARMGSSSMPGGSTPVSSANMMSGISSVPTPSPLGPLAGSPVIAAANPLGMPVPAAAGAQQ
UniProt O00571: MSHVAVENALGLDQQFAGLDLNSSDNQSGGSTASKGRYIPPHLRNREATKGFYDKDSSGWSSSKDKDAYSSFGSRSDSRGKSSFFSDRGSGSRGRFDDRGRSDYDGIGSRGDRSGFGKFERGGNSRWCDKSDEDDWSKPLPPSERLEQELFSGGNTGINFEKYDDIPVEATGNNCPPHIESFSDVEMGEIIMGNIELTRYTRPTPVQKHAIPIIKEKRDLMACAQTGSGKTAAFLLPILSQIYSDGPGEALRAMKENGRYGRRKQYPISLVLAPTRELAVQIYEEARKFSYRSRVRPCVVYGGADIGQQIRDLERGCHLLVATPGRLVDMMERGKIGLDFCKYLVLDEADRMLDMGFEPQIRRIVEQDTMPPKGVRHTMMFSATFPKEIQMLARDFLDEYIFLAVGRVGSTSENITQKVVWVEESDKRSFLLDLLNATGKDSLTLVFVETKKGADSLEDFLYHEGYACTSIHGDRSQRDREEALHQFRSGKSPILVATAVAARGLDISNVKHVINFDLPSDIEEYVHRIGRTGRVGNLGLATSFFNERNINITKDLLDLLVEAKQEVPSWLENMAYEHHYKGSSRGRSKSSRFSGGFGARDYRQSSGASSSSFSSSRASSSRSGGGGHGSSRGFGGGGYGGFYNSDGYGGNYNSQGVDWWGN
UniProt P08047: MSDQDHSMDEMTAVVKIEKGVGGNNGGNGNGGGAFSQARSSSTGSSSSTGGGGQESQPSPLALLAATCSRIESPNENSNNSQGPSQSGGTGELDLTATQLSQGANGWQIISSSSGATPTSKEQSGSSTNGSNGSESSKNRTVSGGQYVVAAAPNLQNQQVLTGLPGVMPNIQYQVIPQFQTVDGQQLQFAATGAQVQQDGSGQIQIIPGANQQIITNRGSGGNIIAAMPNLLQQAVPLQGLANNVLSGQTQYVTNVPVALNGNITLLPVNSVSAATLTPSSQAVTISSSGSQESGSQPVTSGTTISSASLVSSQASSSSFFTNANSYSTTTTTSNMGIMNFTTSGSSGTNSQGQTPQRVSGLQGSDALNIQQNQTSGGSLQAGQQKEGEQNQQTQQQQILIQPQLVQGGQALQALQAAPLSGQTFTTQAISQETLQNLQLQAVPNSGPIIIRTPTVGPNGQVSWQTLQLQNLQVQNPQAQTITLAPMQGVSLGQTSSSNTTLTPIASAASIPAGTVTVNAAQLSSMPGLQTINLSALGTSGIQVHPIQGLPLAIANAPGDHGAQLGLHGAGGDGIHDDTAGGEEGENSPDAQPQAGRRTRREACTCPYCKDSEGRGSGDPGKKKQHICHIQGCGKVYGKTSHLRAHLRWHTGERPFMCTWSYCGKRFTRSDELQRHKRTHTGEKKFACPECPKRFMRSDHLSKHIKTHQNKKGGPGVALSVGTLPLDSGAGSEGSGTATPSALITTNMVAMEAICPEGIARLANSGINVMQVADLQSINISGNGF
UniProt Q9NYV6: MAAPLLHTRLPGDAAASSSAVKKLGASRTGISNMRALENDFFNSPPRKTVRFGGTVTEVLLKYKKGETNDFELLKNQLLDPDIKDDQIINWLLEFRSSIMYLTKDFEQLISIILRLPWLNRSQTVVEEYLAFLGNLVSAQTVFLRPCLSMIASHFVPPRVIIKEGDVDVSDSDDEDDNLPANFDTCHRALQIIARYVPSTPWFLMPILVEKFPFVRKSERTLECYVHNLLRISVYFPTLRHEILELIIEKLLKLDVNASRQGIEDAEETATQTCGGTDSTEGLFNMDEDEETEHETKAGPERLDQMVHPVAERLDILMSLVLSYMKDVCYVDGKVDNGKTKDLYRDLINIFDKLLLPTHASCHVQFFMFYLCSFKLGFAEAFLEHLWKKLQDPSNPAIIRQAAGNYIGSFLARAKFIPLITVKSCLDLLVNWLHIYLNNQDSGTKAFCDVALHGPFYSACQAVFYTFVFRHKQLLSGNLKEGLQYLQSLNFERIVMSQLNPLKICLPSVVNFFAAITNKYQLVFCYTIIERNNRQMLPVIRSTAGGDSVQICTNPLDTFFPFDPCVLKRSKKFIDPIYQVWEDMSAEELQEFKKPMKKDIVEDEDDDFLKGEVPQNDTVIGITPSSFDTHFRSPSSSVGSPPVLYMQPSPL
UniProt P60842: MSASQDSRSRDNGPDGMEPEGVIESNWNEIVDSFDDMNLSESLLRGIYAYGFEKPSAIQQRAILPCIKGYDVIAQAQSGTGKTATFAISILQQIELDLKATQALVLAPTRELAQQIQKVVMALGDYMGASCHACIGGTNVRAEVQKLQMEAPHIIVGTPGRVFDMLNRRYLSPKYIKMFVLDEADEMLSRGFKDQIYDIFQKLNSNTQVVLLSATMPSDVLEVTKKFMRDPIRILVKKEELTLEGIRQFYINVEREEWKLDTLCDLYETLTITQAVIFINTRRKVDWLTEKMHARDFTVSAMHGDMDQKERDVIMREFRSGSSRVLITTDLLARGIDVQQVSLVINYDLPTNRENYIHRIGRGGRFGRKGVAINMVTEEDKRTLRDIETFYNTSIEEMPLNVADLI

B1: FLAG-tagged TAF1A (protein, UniProt Q15573 1-450)
chain: MSDFSEELKGPVTDDEEVETSVLSGAGMHFPWLQTYVETVAIGGKRRKDFAQTTSACLSFIQEALLKHQWQQAAEYMYSYFQTLEDSDSYKRQAAPEIIWKLGSEILFYHPKSNMESFNTFANRMKNIGVMNYLKISLQHALYLLHHGMLKDAKRNLSEAETWRHGENTSSREILINLIQAYKGLLQYYTWSEKKMELSKLDKDDYAYNAVAQDVFNHSWKTSANISALIKIPGVWDPFVKSYVEMLEFYGDRDGAQEVLTNYAYDEKFPSNPNAHIYLYNFLKRQKAPRSKLISVLKILYQIVPSHKLMLEFHTLLRKSEKEEHRKLGLEVLFGVLDFAGCTKNITAWKYLAKYLKNILMGNHLAWVQEEWNSRKNWWPGFHFSYFWAKSDWKEDTALACEKAFVAGLLLGKGCRYFRYILKQDHQILGKKIKRMKRSVKKYSIVNPRL
B2: FLAG-tagged DDX21 (protein, UniProt Q9NR30 1-783)
chain: MPGKLRSDAGLESDTAMKKGETLRKQTEEKEKKEKPKSDKTEEIAEEEETVFPKAKQVKKKAEPSEVDMNSPKSKKAKKKEEPSQNDISPKTKSLRKKKEPIEKKVVSSKTKKVTKNEEPSEEEIDAPKPKKMKKEKEMNGETREKSPKLKNGFPHPEPDCNPSEAASEESNSEIEQEIPVEQKEGAFSNFPISEETIKLLKGRGVTFLFPIQAKTFHHVYSGKDLIAQARTGTGKTFSFAIPLIEKLHGELQDRKRGRAPQVLVLAPTRELANQVSKDFSDITKKLSVACFYGGTPYGGQFERMRNGIDILVGTPGRIKDHIQNGKLDLTKLKHVVLDEVDQMLDMGFADQVEEILSVAYKKDSEDNPQTLLFSATCPHWVFNVAKKYMKSTYEQVDLIGKKTQKTAITVEHLAIKCHWTQRAAVIGDVIRVYSGHQGRTIIFCETKKEAQELSQNSAIKQDAQSLHGDIPQKQREITLKGFRNGSFGVLVATNVAARGLDIPEVDLVIQSSPPKDVESYIHRSGRTGRAGRTGVCICFYQHKEEYQLVQVEQKAGIKFKRIGVPSATEIIKASSKDAIRLLDSVPPTAISHFKQSAEKLIEEKGAVEALAAALAHISGATSVDQRSLINSNVGFVTMILQCSIEMPNISYAWKELKEQLGEEIDSKVKGMVFLKGKLGVCFDVPTASVTEIQEKWHDSRRWQLSVATEQPELEGPREGYGGFRGQREGSRGFRGQRDGNRRFRGQREGSRGPRGQRSGGGNKSNRSQNKGQKRSFSKAFGQ
B3: FLAG-tagged NOLC1 (protein, UniProt Q14978 1-699)
chain: MADAGIRRVVPSDLYPLVLGFLRDNQLSEVANKFAKATGATQQDANASSLLDIYSFWLKSAKVPERKLQANGPVAKKAKKKASSSDSEDSSEEEEEVQGPPAKKAAVPAKRVGLPPGKAAAKASESSSSEESSDDDDEEDQKKQPVQKGVKPQAKAAKAPPKKAKSSDSDSDSSSEDEPPKNQKPKITPVTVKAQTKAPPKPARAAPKIANGKAASSSSSSSSSSSSDDSEEEKAAATPKKTVPKKQVVAKAPVKAATTPTRKSSSSEDSSSDEEEEQKKPMKNKPGPYSSVPPPSAPPPKKSLGTQPPKKAVEKQQPVESSEDSSDESDSSSEEEKKPPTKAVVSKATTKPPPAKKAAESSSDSSDSDSSEDDEAPSKPAGTTKNSSNKPAVTTKSPAVKPAAAPKQPVGGGQKLLTRKADSSSSEEESSSSEEEKTKKMVATTKPKATAKAALSLPAKQAPQGSRDSSSDSDSSSSEEEEEKTSKSAVKKKPQKVAGGAAPSKPASAKKGKAESSNSSSSDDSSEEEEEKLKGKGSPRPQAPKANGTSALTAQNGKAAKNSEEEEEEKKKAAVVVSKSGSLKKRKQNEAAKEAETPQAKKIKLQTPNTFPKRKKGEKRASSPFRRVREEEIEVDSRVADNSFDAKRGAAGDWGERANQVLKFTKGKSFRHEKTKKKRGSYRGGSISVQVNSIKFDSE

biological target: CK2α (endogenous, HEK293 cells) (human (endogenous in HEK293)) (UniProt P68400); assay: co-IP; immunoprecipitation with monoclonal anti-CK2 antibody 6A from the cytosolic or nuclear fraction of HEK293 cells expressing a FLAG-tagged pCDNA3 construct, synchronously progressed to late G1; Western blot

Row | Molecule | binding
1 | FLAG-tagged DDX3X (from UniProt O00571 1-662) | binds
2 | FLAG-tagged SP1 (from UniProt P08047 1-785) | binds
3 | FLAG-tagged RRN3/TIF-1A (from UniProt Q9NYV6 1-651) | binds
4 | FLAG-tagged EIF4A1 (from UniProt P60842 1-406) | binds
5 | B1 | binds
6 | B2 | binds
7 | B3 | binds
